## Library screening results

Chains of the proteins cited; added tags and fusions are not shown.
UniProt E9BF75, entry or part of it: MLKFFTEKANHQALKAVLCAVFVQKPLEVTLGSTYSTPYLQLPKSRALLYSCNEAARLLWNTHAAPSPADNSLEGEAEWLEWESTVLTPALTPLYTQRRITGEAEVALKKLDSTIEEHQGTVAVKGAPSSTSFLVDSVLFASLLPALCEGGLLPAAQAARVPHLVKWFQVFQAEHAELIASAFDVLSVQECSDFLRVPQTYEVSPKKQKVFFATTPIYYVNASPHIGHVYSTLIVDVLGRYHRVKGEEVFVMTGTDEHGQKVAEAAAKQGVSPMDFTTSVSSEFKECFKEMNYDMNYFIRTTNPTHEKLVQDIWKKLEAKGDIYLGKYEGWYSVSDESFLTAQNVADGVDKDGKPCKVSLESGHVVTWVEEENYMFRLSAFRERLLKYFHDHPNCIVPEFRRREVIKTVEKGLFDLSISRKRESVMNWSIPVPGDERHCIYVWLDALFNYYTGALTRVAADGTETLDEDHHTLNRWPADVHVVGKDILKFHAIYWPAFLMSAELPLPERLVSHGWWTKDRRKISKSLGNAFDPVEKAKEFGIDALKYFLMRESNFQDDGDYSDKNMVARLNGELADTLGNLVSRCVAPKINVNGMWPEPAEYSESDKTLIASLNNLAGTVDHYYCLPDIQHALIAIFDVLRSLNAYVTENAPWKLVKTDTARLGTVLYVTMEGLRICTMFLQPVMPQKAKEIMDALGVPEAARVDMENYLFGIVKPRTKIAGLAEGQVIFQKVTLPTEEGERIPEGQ

Mtb heat-shock: 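Assay on Mycobacterium tuberculosis, filed only as a heat shock assay from Cornell; the read-out is not stated. The concentration is filed as 10 mM, unlikely as a test dose, so the dose is not known. The record gives no direction; compounds that gave an IC50 in retests scored well above the rest, so higher reads as stronger inhibition. About 69,000 compounds were tested under these conditions; 1.4% (about 930) showed 50% or more at least once.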
LdMetRS: 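Methionyl-tRNA synthetase (putative), Leishmania donovani (UniProt E9BF75). Primary screen of methionyl-tRNA synthetase; the read-out is not stated. The test concentration is not given. Values are per cent inhibition. About 68,000 compounds were tested under these conditions; 0.035% (about 24) showed 50% or more at least once.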
Mtb growth Cornell: 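Whole-cell assay for inhibitors of Mycobacterium tuberculosis growth, labelled Cornell in the record; the read-out is not stated. The concentration is filed as 10 mM, unlikely as a test dose, so the dose is not known. The record gives no direction; compounds strong in two other growth screens of this library score well above the rest, so higher reads as stronger inhibition. Size under these conditions: about 53,000 compounds, about 900 of them at 50% or above in at least one test.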

Results are percentages, as filed.
The record does not define 0% and 100%; most values in the screen are far below 50% and negative numbers occur (in some assays of this library far below -100).
This is an unselected part of the compounds tested.
A dash means the value is not listed here; it may have been measured.

compound: COc1ccc(C(C)NC(=O)Cn2ccc(=O)n(C)c2=O)cc1OC (configuration not stated)
Mtb heat-shock: 10.9%
LdMetRS: 8.014%
Mtb growth Cornell: 19.49%

compound: CCCn1ncc(CN(Cc2ccsc2)Cc2ccco2)c1C
Mtb heat-shock: -10.64%
LdMetRS: 12.93%
Mtb growth Cornell: 28%

compound: COCCN1CCN(c2ccc(C)nn2)Cc2ccc(C)nc21.O=C(O)C(F)(F)F.O=C(O)C(F)(F)F
Mtb heat-shock: 43.2%
Mtb growth Cornell: -4.03%

compound: CO[C@H]1CCN(Cc2nccs2)C[C@@H]1Cc1ccccc1
Mtb heat-shock: 4.742%
LdMetRS: 15.56%
Mtb growth Cornell: 32.3%

compound: COCCOCCCC(=O)N1CCC(Cc2ccccc2OC)CC1
Mtb heat-shock: -0.07865%
LdMetRS: 9.777%
Mtb growth Cornell: -0.2122%

compound: CCc1ncc(C(=O)N(C)Cc2cc(-c3ccncc3)no2)cn1
Mtb heat-shock: -25.89%
LdMetRS: -3.519%
Mtb growth Cornell: -15.04%

compound: Cc1csc(C2CCCCN2C(=O)CCn2cncn2)n1 (configuration not stated)
Mtb heat-shock: 6.159%
LdMetRS: 3.484%
Mtb growth Cornell: -23.85%

compound: Cc1cc(C)n(CC(=O)N2CCC(NS(C)(=O)=O)CC2)n1
Mtb heat-shock: 0.3058%
LdMetRS: 17.35%

compound: CCCN1CCN(C(=O)Cc2nc(-c3ccco3)oc2C)CC1
Mtb heat-shock: 36.74%
LdMetRS: 10.65%
Mtb growth Cornell: -44.57%

compound: Cc1noc(CN2CCN(C(=O)N(C)C)CC2)n1
Mtb heat-shock: 0.4409%
LdMetRS: 13.24%

compound: Cc1ccc(Cl)cc1NC(=O)C1CSc2ncc(C)c(=O)n2C1 (configuration not stated)
Mtb heat-shock: -13.76%
LdMetRS: 15.8%
Mtb growth Cornell: 13.32%

compound: CCOc1ncccc1NC(=O)C1CCS(=O)(=O)C1 (configuration not stated)
Mtb heat-shock: 2.435%
LdMetRS: 17.47%

compound: Fc1cccc(-c2nnn3c2COC(CNCc2cccs2)C3)c1 (configuration not stated)
LdMetRS: 14.81%

compound: Cc1nc(C2CCCN(C(=O)CCCn3ccnc3C)C2)no1 (configuration not stated)
Mtb heat-shock: 8.862%
LdMetRS: 10.12%
Mtb growth Cornell: 20.95%

compound: CNS(=O)(=O)c1ccc(C)c(C(=O)NCCNc2ncccn2)c1
Mtb heat-shock: -16.9%
LdMetRS: 17.14%
Mtb growth Cornell: -15.67%

compound: O=C(Nc1cn[nH]c1)c1ccc(O)nc1
Mtb heat-shock: -2.077%
LdMetRS: 11.22%

compound: CCc1cc(O)n2nc(C3CCCN3C(=O)c3ccccn3)cc2n1 (configuration not stated)
Mtb heat-shock: -23.16%
LdMetRS: 2.188%
Mtb growth Cornell: -34.76%

compound: CSc1ncc(C(=O)N2C[C@H]3CC[C@@H]2CN(c2ncccn2)C3)cn1
LdMetRS: 2.676%

compound: Cc1nnc(CN(C)Cc2ccc(C(=O)Nc3sccc3C#N)cc2)o1
Mtb heat-shock: 4.52%
LdMetRS: 20.05%

compound: CC(=O)c1c(C)nn(S(=O)(=O)c2ccc(C)cc2)c1C
Mtb heat-shock: 13.98%
LdMetRS: -1.105%

compound: CCn1c(CC2CCN(S(=O)(=O)N3CCCCC3)CC2)nn(C)c1=O
Mtb heat-shock: 12.65%
LdMetRS: 8.184%
Mtb growth Cornell: -41.83%

compound: COc1ccc(N2CCC(NCc3csc(C(C)C)n3)CC2)cc1
Mtb heat-shock: -21.07%
LdMetRS: 22.45%
Mtb growth Cornell: 77.68%

compound: COc1cccc(CNc2c(C)nn(C(C)C)c2C)c1
LdMetRS: 11.03%

compound: CC(=O)N1CCC2(CC1)CCN(S(=O)(=O)c1ccccc1)C2
Mtb heat-shock: -15.76%
LdMetRS: 6.162%
Mtb growth Cornell: -11.78%

compound: NC(=O)NC(=O)CNC1(c2ccc(Cl)cc2)CCCC1
Mtb heat-shock: 9.744%
LdMetRS: 19.26%
Mtb growth Cornell: 4.44%

compound: C[C@@H]1CN(Cc2ccccn2)C[C@]12CCN(Cc1cccnc1)C2=O
LdMetRS: 16.35%

compound: COc1cc(C(=O)N(C)Cc2nccn2CC(F)(F)F)ccc1C
Mtb heat-shock: -20.3%
LdMetRS: 6.843%

compound: CC(C)N(C)C(=O)C1CCC(=O)N(CCc2cccc(F)c2)C1 (configuration not stated)
Mtb heat-shock: -18.46%
LdMetRS: 4.194%
Mtb growth Cornell: -10.63%

Repeated from the top, 3 entries:

compound	Mtb heat-shock	LdMetRS	Mtb growth Cornell
COc1ccc(C(C)NC(=O)Cn2ccc(=O)n(C)c2=O)cc1OC (configuration not stated)	10.9%	8.014%	19.49%
CCCn1ncc(CN(Cc2ccsc2)Cc2ccco2)c1C	-10.64%	12.93%	28%
COCCN1CCN(c2ccc(C)nn2)Cc2ccc(C)nc21.O=C(O)C(F)(F)F.O=C(O)C(F)(F)F	43.2%	-	-4.03%

Measurements from “University of Dundee, Small-Polar-MMV Screening Library” (2021), ChEMBL document CHEMBL3988442.